Measurements published in ChEMBL document CHEMBL2163249, “Exploration of natural compounds as sources of new bifunctional scaffolds targeting cholinesterases and beta amyloid aggregation: the case of chelerythrine” (Bioorg Med Chem, 2012).

Amino acid sequences for entries named in this document (tags omitted). A change or cut given only in a name is not applied to a line headed by its entry.
UniProt P81908, whole entry: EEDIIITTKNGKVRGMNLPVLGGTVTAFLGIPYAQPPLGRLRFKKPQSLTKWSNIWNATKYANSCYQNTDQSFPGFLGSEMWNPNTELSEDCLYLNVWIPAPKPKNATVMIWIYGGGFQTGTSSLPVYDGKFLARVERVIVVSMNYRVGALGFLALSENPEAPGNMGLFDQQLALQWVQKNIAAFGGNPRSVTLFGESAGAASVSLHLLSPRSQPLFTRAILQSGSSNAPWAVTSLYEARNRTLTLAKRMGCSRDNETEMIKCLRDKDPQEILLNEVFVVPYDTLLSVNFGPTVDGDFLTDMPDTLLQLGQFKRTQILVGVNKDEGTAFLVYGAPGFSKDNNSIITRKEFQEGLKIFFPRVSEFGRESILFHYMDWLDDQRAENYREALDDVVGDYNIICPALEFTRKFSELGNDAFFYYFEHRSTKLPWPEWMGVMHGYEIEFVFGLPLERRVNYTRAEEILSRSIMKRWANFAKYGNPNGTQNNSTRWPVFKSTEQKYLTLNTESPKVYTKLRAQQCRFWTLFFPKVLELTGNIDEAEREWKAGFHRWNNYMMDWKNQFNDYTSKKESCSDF
UniProt O42275: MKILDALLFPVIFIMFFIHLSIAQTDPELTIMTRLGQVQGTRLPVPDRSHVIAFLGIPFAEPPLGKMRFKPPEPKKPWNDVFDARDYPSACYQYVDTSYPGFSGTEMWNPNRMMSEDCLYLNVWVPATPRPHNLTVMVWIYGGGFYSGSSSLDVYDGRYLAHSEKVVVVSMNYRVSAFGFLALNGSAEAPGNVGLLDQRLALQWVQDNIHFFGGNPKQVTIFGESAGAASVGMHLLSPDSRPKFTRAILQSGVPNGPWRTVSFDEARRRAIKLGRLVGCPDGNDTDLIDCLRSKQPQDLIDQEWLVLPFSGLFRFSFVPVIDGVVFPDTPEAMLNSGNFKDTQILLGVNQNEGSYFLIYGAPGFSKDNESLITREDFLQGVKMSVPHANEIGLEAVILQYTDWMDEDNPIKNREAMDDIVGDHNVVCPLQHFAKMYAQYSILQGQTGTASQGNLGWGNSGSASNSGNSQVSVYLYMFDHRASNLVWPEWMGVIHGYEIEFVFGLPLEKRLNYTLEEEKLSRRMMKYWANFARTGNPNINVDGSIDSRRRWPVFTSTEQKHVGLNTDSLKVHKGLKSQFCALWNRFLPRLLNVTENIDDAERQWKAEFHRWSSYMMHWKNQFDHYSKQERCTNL

What was measured:
[1] = molecular target: Cholinesterase (Equus caballus) (UniProt P81908); settings: at 2 mg/mL
[2] = molecular target: Acetylcholinesterase (Electrophorus electricus) (UniProt O42275); settings: at 2 mg/mL

CN1[C@@H]2CC[C@H]1C[C@@H](OC(=O)C(O)c1ccccc1)C2 (some centres not stated)
inhibition [1]: 5.53%
inhibition [2]: -3.08%
